Results as given in publication doi:10.1101/2020.01.05.895219.
Results are given in words; binding and its absence hold for the method and conditions named. Binding seen in cells or lysates may run through a third protein. Some results given as binding are weak or reduced against the parent protein; the word gives no strength.

By UniProt entry, the sequences of proteins in these tests, tags left out.
UniProt P02929: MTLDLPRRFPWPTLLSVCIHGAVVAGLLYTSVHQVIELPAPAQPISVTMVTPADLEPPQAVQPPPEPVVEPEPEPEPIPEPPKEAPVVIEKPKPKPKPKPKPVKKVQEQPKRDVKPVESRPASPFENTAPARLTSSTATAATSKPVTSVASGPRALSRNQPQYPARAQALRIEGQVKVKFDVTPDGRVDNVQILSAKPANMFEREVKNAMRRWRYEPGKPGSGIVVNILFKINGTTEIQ

How the values were obtained:
[1] = molecular target: T1, LPP (Braun's lipoprotein) (E. coli (endogenous in W3110)) (UniProt P69776); experiment: cross-linking
T1 sequence: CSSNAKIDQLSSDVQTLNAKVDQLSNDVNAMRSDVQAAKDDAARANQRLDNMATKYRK

[2] = molecular target: T2, ExbB (E. coli (endogenous in W3110)) (UniProt P0ABU7); experiment: cross-linking
T2 sequence: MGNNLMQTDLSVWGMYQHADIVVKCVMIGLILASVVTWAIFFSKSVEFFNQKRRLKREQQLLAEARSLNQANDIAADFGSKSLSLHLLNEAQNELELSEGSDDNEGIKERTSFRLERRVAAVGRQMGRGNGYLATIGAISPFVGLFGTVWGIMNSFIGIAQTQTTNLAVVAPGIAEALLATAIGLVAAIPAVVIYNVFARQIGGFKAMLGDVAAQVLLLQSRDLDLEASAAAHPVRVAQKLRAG

binding [1]: binds
binding [2]: binds
Substance: TonB (from UniProt P02929 1-239)
